The text below walks through data of paper PMC7239452.

These are yes or no findings as the source states them, for the method shown. In cells and extracts the contact can be indirect. A result given as binding can be weak or reduced; the word gives no strength.

For test [1], the target named is T1, Sec24D (mouse, Min-6 insulinoma cells) (mouse (endogenous in Min-6)) (UniProt Q6NXL1).
T1 sequence: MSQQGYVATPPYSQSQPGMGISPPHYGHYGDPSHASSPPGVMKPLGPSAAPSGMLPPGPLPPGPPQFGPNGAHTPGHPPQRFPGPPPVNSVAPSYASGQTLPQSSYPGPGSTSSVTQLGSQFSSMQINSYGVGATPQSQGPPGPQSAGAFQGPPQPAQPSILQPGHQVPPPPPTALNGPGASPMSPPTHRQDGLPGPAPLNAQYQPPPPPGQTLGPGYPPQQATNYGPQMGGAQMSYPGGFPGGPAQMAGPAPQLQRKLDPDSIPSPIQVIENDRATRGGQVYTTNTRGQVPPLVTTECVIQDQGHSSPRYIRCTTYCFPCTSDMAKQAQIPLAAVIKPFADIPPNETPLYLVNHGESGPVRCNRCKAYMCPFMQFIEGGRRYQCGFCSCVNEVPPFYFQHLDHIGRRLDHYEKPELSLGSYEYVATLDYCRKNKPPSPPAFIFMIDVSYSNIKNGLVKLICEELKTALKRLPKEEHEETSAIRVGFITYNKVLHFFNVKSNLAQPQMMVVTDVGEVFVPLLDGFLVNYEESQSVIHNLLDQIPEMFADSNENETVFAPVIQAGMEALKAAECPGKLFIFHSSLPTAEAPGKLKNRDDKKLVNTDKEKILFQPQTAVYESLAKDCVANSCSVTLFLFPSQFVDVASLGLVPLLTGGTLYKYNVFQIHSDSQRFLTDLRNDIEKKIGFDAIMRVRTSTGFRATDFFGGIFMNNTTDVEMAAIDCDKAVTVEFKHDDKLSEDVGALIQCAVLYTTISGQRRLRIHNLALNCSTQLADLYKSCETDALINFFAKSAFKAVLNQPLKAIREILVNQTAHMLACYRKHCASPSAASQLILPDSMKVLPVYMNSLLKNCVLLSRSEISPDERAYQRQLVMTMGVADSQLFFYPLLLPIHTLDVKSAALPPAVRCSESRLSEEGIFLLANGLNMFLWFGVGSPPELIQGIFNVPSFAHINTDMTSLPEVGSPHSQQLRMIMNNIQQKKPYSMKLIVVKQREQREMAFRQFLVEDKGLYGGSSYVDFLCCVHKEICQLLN
Briefly: co-IP; Min-6 lysate, non-denaturing; 50 ug lysate protein, 2 ul primary antibody 1 h, Protein G agarose 2 h at room temperature; precipitated Proinsulin quantified by Mercodia rat/mouse Proinsulin ELISA; controls: no antibody, anti-V5. Background: ELISA stands for enzyme-linked immunosorbent assay.

Test [2] addresses Proinsulin (mouse, Min-6 insulinoma cells) (mouse (endogenous in Min-6)). The test can be described thus: co-IP; Min-6 cells lysed under non-denaturing conditions (RIPA without SDS or Thermo lysis buffer); 500 ug lysate protein, 10 ul primary antibody 1 h at room temperature, Protein G PLUS agarose 2 h; precipitate read by SDS-PAGE and immunoblot. (Immunoblotting shows a protein as a band on a membrane.)

Regarding “Proinsulin (mouse, Min-6 insulinoma cells)”, in test [1], the binding result is listed as “binds”.

B1: Sec24D (mouse, Min-6 insulinoma cells) (protein, UniProt Q6NXL1 1-1032)
chain: T1 sequence
On to B1, for which the binding entry in test [2] was “binds”.
